{"source": "paper PMC10516654", "about": "“Structural and functional characterization of MrpR, the master repressor of the Bacillus subtilis prophage SPβ”", "binders": {"B1": {"name": "MrpR-His6 (MrpR wild-type protein, master repressor of the Bacillus subtilis prophage SPβ) (protein, UniProt O34558 2-325)", "chain": "FNSEIKEKYLDTLSEGMVMQMRPIFAKAEITETLYNKDIYDFTSMQILELIRSFDQTTIGSVRRTLALLSLYIDWAISYKLSKGLTNLARTISEEELYECLGDKKLYITYSELEEMENQLVNYQSKAVLRLLFEGVSGLAHSELLSLTKKQVEDAMLNGNVLTLYDSKHGERKLKVSSECLVIALNAAQETKYKLKNGKAKGQTKEVFLVENDYVVKTKRTSNKGDGQASKFVITNLITDISEFFKINFLTPNTIVRSGHLYRAYQLYKEKGVIDNSVRYQIIDDFNLRVKSKYRAVYSMQDYINEEEVNKYYAEELGLKETTI"}}, "key": {"[1]": {"molecular_target": "MrpR-His6 (MrpR wild-type protein, master repressor of the Bacillus subtilis prophage SPβ) (Bacillus subtilis prophage SPβ) (UniProt O34558)", "experiment": "crystal structure; apo MrpR-His6, 480 μM, sitting drop vapor diffusion at 20°C; two MrpR molecules in the asymmetric unit; 2.9 Å; both purified"}, "[2]": {"molecular_target": "MrpR-His6 (MrpR wild-type protein, master repressor of the Bacillus subtilis prophage SPβ) (Bacillus subtilis prophage SPβ) (UniProt O34558)", "experiment": "SEC; analytical SEC, S200 300/10 GL; protein at 100 μM, 100 μl injected at 4°C; 20 mM HEPES-Na (pH 6.37), 200 mM NaCl, 20 mM KCl; calibrated with standard proteins; both purified"}}, "note": "These are yes or no findings as the source states them, for the method shown. Sequences can lack the tags named with a protein."}
{"binder": "B1", "values": [{"measurement": "binding", "setting": "[1]", "value": "no binding"}, {"measurement": "binding", "setting": "[2]", "value": "no binding (tested: 100 μM)"}]}
